The results are deposited in PubChem (AID912; NCATS, 2007).

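Uptake of anthrax lethal toxin into cultured cells, read by FRET (460/530 nm ratio) and reported from the 460 nm channel; the cell line is not named here. Each compound was tested as a concentration series from about 0.0005 to 40 µM. The number is the fitted AC50 of the 460 nm signal alone; lower values mean a more potent effect. A falling signal goes with compounds filed as inhibitors or cytotoxic, a rising one with activators or fluorescent compounds (inferred from the filed classes).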

Values are in µM. Common to all entries: measured here: 460 nm channel. This is a side read-out of the assay, for part of the compounds, not drawn at random. Potencies fitted to partial, single-point or poorly fitting curves are rough. The first word of each remark tells which way the curve ran; it can be opposite to the aim of the assay.

Compound | AC50 (µM) | curve
CCOC(=O)N1CCC(NC(=O)c2cc(C(=O)NC3CCCC3)ccc2CO)CC1 | 0.01585 | falling, partial curve, poor fit
COc1ccc(CNC(=O)C2CCNCC2)cc1 | 5.012 | rising, single point
Cc1cccc(S(=O)(=O)C(C#N)c2nc3ccccc3nc2N2CCCC2)c1 (configuration not stated) | 10 | falling, single point
CN1CCN(c2ncc3nc(CCc4ccccc4)c(=O)n(CCC#N)c3n2)CC1 | 25.12 | rising, single point
O=C(NCc1ccc(Cl)cc1Cl)c1ccccn1 | 31.62 | falling, single point
Cc1cc(Nc2nc3c(c(=O)n(C)c(=O)n3C)n2C)n(-c2ccc(Cl)cc2)n1 | 31.62 | rising, single point
CC1CCCCN1CCNC(=O)c1cc2c(-c3ccccc3F)nn(C)c2s1 (configuration not stated) | 6.31 | falling, partial curve
COc1cccc(Cn2c(=O)c(C)nc3cnc(Nc4cccc(OC)c4)nc32)c1 | 25.12 | rising, single point
Cc1nnc(SCc2cc(=O)n3[nH]cnc3n2)s1 | 0.05012 | falling, full curve, poor fit
Cc1cccc(N(C)C(=O)c2cc3cc4ccc(C)cc4nc3o2)c1 | 10 | falling, partial curve
Nc1ccccc1SCc1csc(-c2ccc(Cl)cc2)n1 | 5.012 | falling, single point
O=C(O)c1cc(N=Nc2ccc([N+](=O)[O-])cc2)ccc1O | 1 | rising, single point
CC(C)N(Cc1nc(-c2ccc(Cl)cc2)no1)C(=O)CCCN1C(=O)c2ccccc2C1=O | 7.943 | falling, partial curve
CC1=C(C(=O)O)N2C(=O)[C@@H](NC(=O)[C@@H](N)c3ccc(O)cc3)[C@@H]2SC1 | 2.512 | rising, partial curve, poor fit
CN(C)/C=c1\sc2c(C#N)cc(C(=O)c3ccc(Br)cc3)n2c1=O | 0.7943 | falling, full curve, poor fit
c1ccc(Cn2nnnc2C(c2cccs2)N2CCc3ccccc3C2)cc1 (configuration not stated) | 10 | falling, partial curve
C=CCN1CC2CC3(COc4cc(C)cc(C)c4)C=CC2(O3)C1=O (configuration not stated) | 0.7943 | falling, full curve
COc1ccccc1NC(=O)c1cc2ccc(O)cc2o/c1=N\O | 7.943 | rising, partial curve
COC(=O)c1ccc(NC(=O)CN(C2CCCCC2)S(C)(=O)=O)cc1 | 7.943 | falling, partial curve
Cc1cc(N)c2ccccc2[n+]1CCCCCCCCCCCCCC[n+]1c(C)cc(N)c2ccccc21 | 10 | falling, full curve
Cc1cc(C)c2c(N)c(C(=O)N3CCN(c4ncccn4)CC3)sc2n1 | 0.1259 | falling, full curve, poor fit
COc1cccc(Cn2c(=O)c(-c3ccccc3)nc3cnc(OC)nc32)c1 | 12.59 | rising, partial curve
COc1ccccc1-c1nc(NCc2ccccc2)c2ccccc2n1 | 31.62 | falling, single point
CN(C)c1ncc2nc(-c3ccc(F)cc3)c(=O)n(CCc3ccccc3)c2n1 | 3.981 | rising, partial curve
Clc1ccccc1-c1nccc(NCc2ccccc2)n1 | 25.12 | falling, single point
CCC1(CC)C(=O)NC(=NCCc2c[nH]c3ccccc23)NC1=O | 5.012 | rising, single point
Cc1cccc(OCc2nnc(SCC(=O)Nc3ccc(C)c(C)c3)o2)c1 | 31.62 | falling, single point
COc1cccc(-c2cc3nc4c(c(N5CCC6(CC5)OCCO6)n3n2)CCCC4)c1 | 0.631 | falling, partial curve
CCCCCCCCCCCCC/C=C\[C@@H](O)[C@H](CO)NC(C)=O | 15.85 | falling, partial curve
O=C(NCCO)c1cc2ccccc2cc1O | 31.62 | falling, single point
CCOC(=O)C1Cn2c(nc3c(c2=O)C(C)(C)Cc2ccccc2-3)S1 (configuration not stated) | 19.95 | falling, single point
COc1ccc(-c2nc3cnc(N4CCN(C)CC4)nc3n(Cc3cccs3)c2=O)cc1 | 5.012 | rising, partial curve
CC(C)CN1CCCC2(CCN(C(=O)c3ccco3)CC2)C1 | 15.85 | rising, single point
CCc1nc(NCc2ccco2)c2oc3ccccc3c2n1 | 0.7943 | rising, full curve, poor fit
O=C(OC(C(=O)NC1CCCC1)c1ccc(F)cc1)c1ccno1 (configuration not stated) | 5.012 | rising, partial curve
CS(=O)(=O)N1CCN(C(=O)C(Sc2ccccc2)c2ccccc2)CC1 (configuration not stated) | 19.95 | rising, single point

Once more, the final 2:

Compound	AC50 (µM)	curve
O=C(OC(C(=O)NC1CCCC1)c1ccc(F)cc1)c1ccno1 (configuration not stated)	5.012	rising, partial curve
CS(=O)(=O)N1CCN(C(=O)C(Sc2ccccc2)c2ccccc2)CC1 (configuration not stated)	19.95	rising, single point